No constants are given. Whether binding was seen depends on the method and setting. Binding seen in cells or lysates may run through a third protein. Some results given as binding are weak or reduced against the parent protein; the word gives no strength.
Biological target: T1, Biliverdin reductase A (mouse (endogenous in mouse LECs)) (UniProt Q9CY64)
T1 sequence: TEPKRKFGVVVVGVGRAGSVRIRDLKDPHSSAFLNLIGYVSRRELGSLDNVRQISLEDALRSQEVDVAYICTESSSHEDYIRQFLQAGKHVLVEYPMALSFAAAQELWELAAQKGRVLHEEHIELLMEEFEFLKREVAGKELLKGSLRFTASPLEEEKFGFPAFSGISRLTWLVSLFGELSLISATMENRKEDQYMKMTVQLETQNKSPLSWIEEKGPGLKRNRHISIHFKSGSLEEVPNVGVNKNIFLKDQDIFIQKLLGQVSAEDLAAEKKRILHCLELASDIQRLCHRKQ
Assay: co-IP; lysates of young and senescent mouse LECs, with or without 200 uM H2O2 for 4 h; antibodies against BVRA, ERK2 or normal mouse IgG at 4°C overnight, protein A/G Plus-Agarose beads 2 h at 4°C, western blot

Sequences of proteins named here, by UniProt entry; tags and fusion partners are left off.
UniProt P63085: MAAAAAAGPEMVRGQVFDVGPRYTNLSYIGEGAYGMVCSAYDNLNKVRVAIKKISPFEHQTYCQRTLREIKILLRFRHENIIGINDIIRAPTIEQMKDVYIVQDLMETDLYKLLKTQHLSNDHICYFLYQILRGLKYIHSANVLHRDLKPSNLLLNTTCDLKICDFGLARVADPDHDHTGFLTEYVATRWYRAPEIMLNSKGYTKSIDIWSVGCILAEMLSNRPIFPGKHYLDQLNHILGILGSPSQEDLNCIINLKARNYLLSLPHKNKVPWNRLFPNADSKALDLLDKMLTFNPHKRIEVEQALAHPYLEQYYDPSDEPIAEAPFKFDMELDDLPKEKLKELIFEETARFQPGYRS

binding: binds
Substance: ERK2 (from UniProt P63085 1-358)

Reference: paper PMC9325611
